Experimental data published in US20190256846A1 (AGENCY FOR SCIENCE TECHNOLOGY AND RESEARCH, published 2019).
No constants are given. Whether binding was seen depends on the method and setting. In cells and extracts the contact can be indirect. Some results given as binding are weak or reduced against the parent protein; the word gives no strength.

Target: ErbB2 (overexpressed in cells, lysate) (UniProt P04626)
Assay: GST pull-down from lysates of cells overexpressing ErbB2, Western blot with anti-ErbB2

- binding: binds
B1: GST fusion protein carrying the three PDZ domains of Tjp1 (GST-Tjp1 PDZ1-3) (other, human, UniProt Q07157 1-503, looked up)
chain: MSARAAAAKSTAMEETAIWEQHTVTLHRAPGFGFGIAISGGRDNPHFQSGETSIVISDVLKGGPAEGQLQENDRVAMVNGVSMDNVEHAFAVQQLRKSGKNAKITIRRKKKVQIPVSRPDPEPVSDNEEDSYDEEIHDPRSGRSGVVNRRSEKIWPRDRSASRERSLSPRSDRRSVASSQPAKPTKVTLVKSRKNEEYGLRLASHIFVKEISQDSLAARDGNIQEGDVVLKINGTVTENMSLTDAKTLIERSKGKLKMVVQRDERATLLNVPDLSDSIHSANASERDDISEIQSLASDHSGRSHDRPPRRSRSRSPDQRSEPSDHSRHSPQQPSNGSLRSRDEERISKPGAVSTPVKHADDHTPKTVEEVTVERNEKQTPSLPEPKPVYAQVGQPDVDLPVSPSDGVLPNSTHEDGILRPSMKLVKFRKGDSVGLRLAGGNDVGIFVAGVLEDSPAAKEGLEEGDQILRVNNVDFTNIIREEAVLFLLDLPKGEEVTILAQKK
notes: domain: PDZ 1-3 domains; also called GST ZO-1PDZ1-3 domain fusion protein; ZO-1 (Tjp1) PDZ domains; not shown: glutathione S-transferase (GST) tag encoded by the pGEX 4T-1 vector
